Assay results: publication PMC8885422
No constants are given. Whether binding was seen depends on the method and setting. In cells and extracts the contact can be indirect. Binding calls can cover weak binding; strength is not graded here. Sequences can lack the tags named with a protein.

Protein sequences, listed by entry. Tags and fused reporters are not part of them. Lines headed by an entry give the natural chain unless they say otherwise; changes in a name come on top.
UniProt P32927: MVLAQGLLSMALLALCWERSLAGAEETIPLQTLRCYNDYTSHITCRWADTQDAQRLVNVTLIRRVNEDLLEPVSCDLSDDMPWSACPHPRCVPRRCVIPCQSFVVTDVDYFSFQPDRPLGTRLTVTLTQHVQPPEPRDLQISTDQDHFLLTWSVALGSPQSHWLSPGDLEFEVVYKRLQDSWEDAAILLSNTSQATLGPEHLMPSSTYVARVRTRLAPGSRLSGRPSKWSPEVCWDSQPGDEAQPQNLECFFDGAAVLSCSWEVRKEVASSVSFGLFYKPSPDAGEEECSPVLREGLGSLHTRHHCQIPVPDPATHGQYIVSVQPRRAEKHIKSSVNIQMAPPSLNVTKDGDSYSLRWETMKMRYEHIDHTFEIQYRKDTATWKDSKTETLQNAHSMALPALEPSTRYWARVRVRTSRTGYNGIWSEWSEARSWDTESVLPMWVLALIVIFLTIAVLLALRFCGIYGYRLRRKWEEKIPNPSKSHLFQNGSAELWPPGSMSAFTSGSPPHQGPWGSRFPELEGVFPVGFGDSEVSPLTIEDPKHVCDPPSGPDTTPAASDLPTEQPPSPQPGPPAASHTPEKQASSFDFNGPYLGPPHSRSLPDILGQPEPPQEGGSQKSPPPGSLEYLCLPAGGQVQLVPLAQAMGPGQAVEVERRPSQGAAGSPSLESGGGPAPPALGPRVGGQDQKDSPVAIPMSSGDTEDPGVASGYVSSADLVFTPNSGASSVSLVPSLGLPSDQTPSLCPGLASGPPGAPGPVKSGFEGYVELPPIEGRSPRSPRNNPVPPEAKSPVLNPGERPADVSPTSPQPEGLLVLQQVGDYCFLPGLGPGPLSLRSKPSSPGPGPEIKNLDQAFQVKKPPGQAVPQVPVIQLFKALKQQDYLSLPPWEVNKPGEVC

Molecular target: T1, GST-tagged CSF2RB fragment aa461-473 (human) (UniProt P32927)
T1 sequence: RFCGIYGYRLRRK
Assay: pull-down; GST-tagged fragment on glutathione-sepharose beads incubated with the in vitro translated cytoplasmic domain of the other receptor overnight at 4 °C; western blot; only the target purified

- binding: binds
Substance: in vitro translated intracellular domain of FLT3-ITD (domain or fragment)
